Patent publication US20100298138A1, “Aminoazoline and Urea Derivatives for Combating Animal Pests” (BASF SE, priority 2007, published 2010)
Some results were stated once for a whole list of compounds, not compound by compound.

Tests used:
Format in all cases: in vivo
[1] = test system: Cotton Aphid (Aphis gossypii); conditions: 300 ppm; after 5 days; in comparison with untreated controls
Excerpt: • 2. Biological Examples II.1 Cotton Aphid (Aphis gossypii), Mixed Life Stages
The active compounds were formulated in 50:50 acetone: water and 100 ppm Kinetic® surfactant.
Cotton plants at the cotyledon stage (one plant per pot) were infested by placing a heavily infested leaf from the main colony on top of each cotyledon. The aphids were allowed to transfer to the host plant overnight, and the leaf used to transfer the aphids was removed. The cotyledons were dipped in the test solution and allowed to dry. After 5 days, mortality counts were made.

[2] = test system: Green Peach Aphid (Myzus persicae); conditions: 300 ppm; after 5 days; in comparison with untreated controls
[3] = test system: Cowpea Aphid (Aphis craccivora); conditions: 300 ppm; after 72 h; in comparison with untreated controls
[4] = test system: Brown Planthopper (Nilaparvata lugens); conditions: 300 ppm; assessed 24, 48 and 72 hours after treatment; in comparison with untreated controls
Experimental: II.5 Brown Planthopper (Nilaparvata lugens)
The active compounds were formulated as a 20:80 acetone:water solution. Surfactant (Alkamuls EL 620) was added at the rate of 0.1% (vol/vol).
Potted rice plants of 3-4 weeks of age are sprayed with 10 ml of the test solution using air driven hand atomizer (Devillbis atomizer) at 1.7 bar. The treated plants are allowed to dry for about 1 hour and covered with Mylar cages. The plants are inoculated with 10 adults of the specie (5 male and 5 females) and kept at 25-27° C. and 50-60% humidity for 3 days. Mortality is assed after 24, 48 and 72 hours after treatment. Dead insects are usually found in the water surface. Each treatment is replicated once.

[5] = test system: Southern Armyworm (Spodoptera eridania); conditions: 300 ppm; at 4 days; in comparison with untreated controls
[6] = test system: Silverleaf Whitefly (Bemisia argentifolii); conditions: 300 ppm; 3 days after treatment; in comparison with untreated controls
Experimental: II.4 Silverleaf Whitefly (Bemisia argentifolii), Adult
The active compounds were formulated in 50:50 acetone:water and 100 ppm Kinetic® surfactant.
Selected cotton plants were grown to the cotyledon state (one plant per pot). The cotyledons were dipped into the test solution to provide complete coverage of the foliage and placed in a well-vented area to dry. Each pot with treated seedling was placed in a plastic cup and 10 to 12 whitefly adults (approximately 3-5 day old) were introduced. The insects were collected using an aspirator and an 0.6 cm, non-toxic Tygon® tubing (R-3603) connected to a barrier pipette tip. The tip, containing the collected insects, was then gently inserted into the soil containing the treated plant, allowing insects to crawl out of the tip to reach the foliage for feeding. The cups were covered with a reusable screened lid (150 micron mesh polyester screen PeCap from Tetko Inc). Test plants were maintained in the holding room at about 25° C. and 20-40% relative humidity for 3 days avoiding direct exposure to the fluorescent light (24 hour photoperiod) to prevent trapping of heat inside the cup. Mortality was assessed 3 days after treatment of the plants.

[7] = test system: Vetch Aphid (Megoura viciae); conditions: concentration of the test solution 2500 mg/L; 6 days
[8] = test system: Boll Weevil (Anthonomus grandis); conditions: concentration of the test solution 2500 mg/L; 3 to 5 days

SMILES: COc1cccc2c1CCC(NC(=S)NCCOC(=O)C(C)(C)OC(C)=O)C2 (centres unmarked) [compound 24]
- mortality [1]: at least 50%

SMILES: O=C(OCCNC(=S)NC1Cc2ccccc2C1)c1cncc(Br)c1 [compound 27]
- mortality [1]: at least 50%
- mortality [2]: at least 50%

SMILES: COCC(=O)OCCNC(=S)NC1CCc2ccccc2C1 (centres unmarked) [compound 22]
- mortality [1]: at least 50%

SMILES: O=C(OCCNC(=S)NC1Cc2ccccc2C1)c1ccc(Cl)s1 [compound 34]
- mortality [1]: at least 50%
- mortality [2]: at least 50%
- mortality [3]: at least 60%

SMILES: COc1cccc2c1CCC(N=C1SCCN1C1=NCCS1)C2 (centres unmarked) [4b]
- mortality [3]: at least 60%
- mortality [4]: at least 50%
- mortality [5]: at least 50%

SMILES: CSc1ncccc1C(=O)OCCNC(=S)NC1Cc2ccccc2C1 [compound 31]
- mortality [1]: at least 50%
- mortality [2]: at least 50%

SMILES: O=C(CCc1ccccc1)OCCNC(=S)NC1Cc2ccccc2C1 [compound 43]
- mortality [1]: at least 50%
- mortality [2]: at least 50%
- mortality [3]: at least 60%

SMILES: O=C(OCCNC(=S)NC1Cc2ccccc2C1)c1ccc(Cl)nc1 [compound 51]
- mortality [1]: at least 50%

SMILES: O=C(COc1ccccc1)OCCNC(=S)NC1Cc2ccccc2C1 [compound 46]
- mortality [1]: at least 50%
- mortality [2]: at least 50%

SMILES: COCC(=O)OCCNC(=S)NC1CCc2ccc(OC)cc2C1 (centres unmarked) [compound 19]
- mortality [4]: at least 50%

SMILES: c1ccc2c(c1)CCC(N=C1SCCN1C1=NCCS1)C2 (centres unmarked) [3b]
- mortality [6]: at least 50%

SMILES: O=C(OCCNC(=S)NC1Cc2ccccc2C1)c1ccno1 [compound 26]
- mortality [1]: at least 50%
- mortality [2]: at least 50%
- mortality [3]: at least 60%

SMILES: Cc1cc(C(=O)OCCNC(=S)NC2Cc3ccccc3C2)c(C)o1 [compound 53]
- mortality [7]: at least 50%

SMILES: CC(=O)OC(C)(C)C(=O)OCCNC(=S)NC1Cc2ccccc2C1 [compound 52]
- mortality [1]: at least 50%
- mortality [2]: at least 50%

SMILES: Fc1cccc2c1CCC(N=C1SCCN1C1=NCCS1)C2 (centres unmarked) [8b]
- mortality [1]: at least 50%

SMILES: COc1ccc2c(c1)CCC(NC1=NCCS1)C2 (centres unmarked) [9a]
- mortality [1]: at least 50%
- mortality [7]: at least 50%

SMILES: CC(Oc1ccccc1)C(=O)OCCNC(=S)NC1Cc2ccccc2C1 (centres unmarked) [compound 29]
- mortality [3]: at least 60%

SMILES: COCC(=O)OCCNC(=S)NC1CCc2c(cccc2OC)C1 (centres unmarked) [compound 23]
- mortality [5]: at least 50%

SMILES: O=C(Cc1ccccc1)OCCNC(=S)NC1Cc2ccccc2C1 [compound 32]
- mortality [1]: at least 50%
- mortality [2]: at least 50%
- mortality [5]: at least 50%

SMILES: O=C(Cc1cccs1)OCCNC(=S)NC1Cc2ccccc2C1 [compound 44]
- mortality [1]: at least 50%
- mortality [2]: at least 50%
- mortality [3]: at least 60%

SMILES: O=C(OCCNC(=S)NC1Cc2ccccc2C1)c1ccco1 [compound 33]
- mortality [1]: at least 50%
- mortality [2]: at least 50%
- mortality [7]: at least 50%

SMILES: O=C(OCCNC(=S)NC1Cc2ccccc2C1)C(c1ccccc1)c1ccccc1 [compound 36]
- mortality [1]: at least 50%
- mortality [2]: at least 50%

SMILES: CC(=O)Oc1ccccc1C(=O)OCCNC(=S)NC1Cc2ccccc2C1 [compound 35]
- mortality [1]: at least 50%
- mortality [2]: at least 50%
- mortality [3]: at least 60%

SMILES: Clc1ccc2c(c1)CC(NC1=NCCS1)CC2 (centres unmarked) [5a]
- mortality [3]: at least 60%
- mortality [8]: at least 50%

SMILES: O=C(OCCNC(=S)NC1Cc2ccccc2C1)c1cccc(C(F)(F)F)c1 [compound 28]
- mortality [1]: at least 50%
- mortality [2]: at least 50%

SMILES: CCSc1ncccc1C(=O)OCCNC(=S)NC1Cc2ccccc2C1 [compound 30]
- mortality [1]: at least 50%
- mortality [2]: at least 50%
- mortality [3]: at least 60%

SMILES: CCC(C(=O)OCCNC(=S)NC1Cc2ccccc2C1)c1ccccc1 (centres unmarked) [compound 38]
- mortality [2]: at least 50%
- mortality [3]: at least 60%

SMILES: Fc1cccc2c1CCC(NC1=NCCS1)C2 (centres unmarked) [8a]
- mortality [7]: at least 50%

SMILES: c1ccc2c(c1)CC(NC1=NCCS1)C2 [compound 11]
- mortality [1]: at least 50%
- mortality [2]: at least 50%
- mortality [3]: at least 60%

SMILES: COc1ccc2c(c1)CCC(N=C1SCCN1C1=NCCS1)C2 (centres unmarked) [9b]
- mortality [7]: at least 50%
